Experimental data from patent publication US12491217B2, “Compositions and methods for promoting healthy neural development in an unborn baby” (The Regents of the University of California, priority 2019, dated 2025).

Assay: Metabolomics of fetal brain at E14.5
Assay type: in vivo, C57Bl/6J mice
[1] = metabolite level in E14.5 fetal brain, ANOVA contrast ABX/SPF
[2] = metabolite level in E14.5 fetal brain, ANOVA contrast GF/ABX
[3] = metabolite level in E14.5 fetal brain, ANOVA contrast GF/SPF
[4] = metabolite level in E14.5 fetal brain, ANOVA contrast GF/Sp
[5] = metabolite level in E14.5 fetal brain, ANOVA contrast Sp/ABX
[6] = metabolite level in E14.5 fetal brain, ANOVA contrast Sp/SPF
[7] = E14.5 fetal brain metabolite level, ANOVA contrast ABX vs SPF
[8] = E14.5 fetal brain metabolite level, ANOVA contrast GF vs ABX
[9] = E14.5 fetal brain metabolite level, ANOVA contrast GF vs SPF
[10] = E14.5 fetal brain metabolite level, ANOVA contrast GF vs Sp
[11] = E14.5 fetal brain metabolite level, ANOVA contrast Sp vs ABX
[12] = E14.5 fetal brain metabolite level, ANOVA contrast Sp vs SPF

SMILES | fold of change ABX/SPF [1] | fold of change GF/ABX [2] | fold of change GF/SPF [3] | fold of change GF/Sp [4] | fold of change Sp/ABX [5] | fold of change Sp/SPF [6] | fold of change ABX/SPF [7] | fold of change GF/ABX [8] | fold of change GF/SPF [9] | fold of change GF/Sp [10] | fold of change Sp/ABX [11] | fold of change Sp/SPF [12]
CC(=O)OP(=O)(O)O [compound 1181] | 0.93 | 1.16 | 1.08 | 1.00 | 1.16 | 1.08 | – | – | – | – | – | –
O=P(O)(O)O [compound 1183] | 0.89 | 0.78 | 0.70 | 0.76 | 1.02 | 0.92 | – | – | – | – | – | –
CCCCCC(=O)O [compound 1201] | 1.09 | 0.87 | 0.95 | 0.81 | 1.08 | 1.18 | – | – | – | – | – | –
CCCCCCCC(=O)O [compound 1203] | 1.06 | 0.97 | 1.03 | 1.22 | 0.80 | 0.84 | – | – | – | – | – | –
CCCCCCCCC(=O)O [compound 1204] | 1.41 | 0.99 | 1.40 | 1.24 | 0.80 | 1.13 | – | – | – | – | – | –
CCCCCCCCCC(=O)O [compound 1205] | 0.96 | 1.17 | 1.13 | 1.23 | 0.96 | 0.92 | – | – | – | – | – | –
CCCCCCCCCCCCCCCC(=O)O [compound 1217] | 0.95 | 0.81 | 0.77 | 1.02 | 0.79 | 0.75 | – | – | – | – | – | –
CCCCCC/C=C\CCCCCCCC(=O)O [compound 1218] | 0.86 | 0.73 | 0.62 | 0.92 | 0.79 | 0.68 | – | – | – | – | – | –
CCCCCCCCCCCCCCCCCC(=O)O [compound 1223] | 0.96 | 0.87 | 0.84 | 1.08 | 0.81 | 0.78 | – | – | – | – | – | –
CCCCCCCCCCCCCCCCCCCC(=O)O [compound 1236] | 0.97 | 0.82 | 0.80 | 1.22 | 0.68 | 0.65 | – | – | – | – | – | –
CCCCCCCC/C=C\CCCCCCCCCC(=O)O [compound 1239] | – | – | – | – | – | – | 0.84 | 0.80 | 0.67 | 1.02 | 0.79 | 0.66
CCCCCCCC/C=C\CCCCCCCCCCCC(=O)O [compound 1244] | – | – | – | – | – | – | 1.17 | 0.61 | 0.72 | 1.16 | 0.53 | 0.62
CCCCCCCC/C=C\CCCCCCCCCCCCCC(=O)O [compound 1247] | – | – | – | – | – | – | 0.85 | 0.62 | 0.52 | 0.87 | 0.71 | 0.60
CCCCC/C=C\C/C=C\CCCCCC(=O)O [compound 1253] | – | – | – | – | – | – | 0.86 | 0.96 | 0.82 | 1.09 | 0.88 | 0.76
CC/C=C\C/C=C\C/C=C\C/C=C\C/C=C\CCCC(=O)O [compound 1258] | – | – | – | – | – | – | 0.99 | 0.55 | 0.54 | 0.89 | 0.61 | 0.60
CC/C=C\C/C=C\C/C=C\C/C=C\C/C=C\CCCCCC(=O)O [compound 1259] | – | – | – | – | – | – | 0.98 | 0.43 | 0.42 | 0.89 | 0.49 | 0.47
CC/C=C\C/C=C\C/C=C\C/C=C\C/C=C\C/C=C\CCC(=O)O [compound 1260] | – | – | – | – | – | – | 0.77 | 0.48 | 0.37 | 0.87 | 0.56 | 0.43
CC/C=C\C/C=C\C/C=C\C/C=C\C/C=C\C/C=C\CCCCC(=O)O [compound 1264] | – | – | – | – | – | – | 1.03 | 0.31 | 0.32 | 0.83 | 0.37 | 0.38

SMILES | fold of change ABX/SPF [1] | fold of change GF/ABX [2] | fold of change GF/SPF [3] | fold of change GF/Sp [4] | fold of change Sp/ABX [5] | fold of change Sp/SPF [6] | fold of change ABX/SPF [7] | fold of change GF/ABX [8] | fold of change GF/SPF [9] | fold of change GF/Sp [10] | fold of change Sp/ABX [11] | fold of change Sp/SPF [12]
CCCCC/C=C\C/C=C\CCCCCCCC(=O)O [compound 1265] | – | – | – | – | – | – | 0.89 | 0.61 | 0.54 | 1.11 | 0.55 | 0.49
CCCCC/C=C\C/C=C\C/C=C\C/C=C\CCCC(=O)O [compound 1270] | – | – | – | – | – | – | 0.77 | 0.54 | 0.42 | 0.93 | 0.58 | 0.45
CCCCC/C=C\C/C=C\C/C=C\C/C=C\CCCCCC(=O)O [compound 1271] | – | – | – | – | – | – | 0.87 | 0.65 | 0.57 | 0.93 | 0.71 | 0.61
CCCCC/C=C\C/C=C\C/C=C\C/C=C\C/C=C\CCC(=O)O [compound 1272] | – | – | – | – | – | – | 0.78 | 0.63 | 0.49 | 0.96 | 0.66 | 0.51
CCCCC/C=C\C/C=C\CCCCCCCCCCCC(=O)O [compound 1273] | – | – | – | – | – | – | 0.83 | 0.79 | 0.65 | 1.25 | 0.63 | 0.52
CCCCC/C=C\C/C=C\CCCCCCCCCC(=O)O [compound 1274] | – | – | – | – | – | – | 0.88 | 0.60 | 0.53 | 1.04 | 0.58 | 0.51
CCCCCCCC/C=C\C/C=C\C/C=C\CCCC(=O)O [compound 1276] | – | – | – | – | – | – | 1.09 | 0.45 | 0.49 | 0.95 | 0.47 | 0.51
CCCCC/C=C\C/C=C\C/C=C\CCCCCCCCC(=O)O [compound 1277] | – | – | – | – | – | – | 0.94 | 0.60 | 0.57 | 1.14 | 0.52 | 0.50
O=C(O)CCCC(=O)O [compound 1351] | – | – | – | – | – | – | 0.68 | 1.20 | 0.81 | 0.83 | 1.45 | 0.98
O=C(O)CCC(O)C(=O)O (stereo not drawn) [compound 1355] | – | – | – | – | – | – | 0.77 | 1.03 | 0.79 | 1.01 | 1.02 | 0.79
O=C(O)CCCC(O)C(=O)O (stereo not drawn) [compound 1359] | – | – | – | – | – | – | 0.72 | 0.98 | 0.70 | 0.95 | 1.03 | 0.74
O=C(O)CCC(O)CC(=O)O (stereo not drawn) [compound 1360] | – | – | – | – | – | – | 0.80 | 1.29 | 1.03 | 1.17 | 1.10 | 0.88
O=C(O)/C=C\C(=O)O [compound 1363] | – | – | – | – | – | – | 0.85 | 1.11 | 0.94 | 1.08 | 1.02 | 0.87
O=C(O)CCCCCCCCC(=O)O [compound 1372] | – | – | – | – | – | – | 1.08 | 0.94 | 1.02 | 1.18 | 0.80 | 0.86
CCCCCC(N)C(=O)O (stereo not drawn) [compound 1430] | – | – | – | – | – | – | 0.73 | 1.22 | 0.89 | 1.12 | 1.09 | 0.80
CCCC(=O)OC(CC(=O)[O-])C[N+](C)(C)C (stereo not drawn) [compound 1446] | – | – | – | – | – | – | 0.93 | 1.23 | 1.15 | 1.07 | 1.15 | 1.07
CCC(=O)OC(CC(=O)[O-])C[N+](C)(C)C (stereo not drawn) [compound 1449] | – | – | – | – | – | – | 0.84 | 1.14 | 0.96 | 1.05 | 1.08 | 0.91
